# Source: PubChem BioAssay AID540256 (National Center for Advancing Translational Sciences (NCATS), 2011)
# The whole screen tested about 300,000 compounds, of which about 3,700 (1.2%) were called active. Inconclusive results, whose numbers are uncertain, are shown with a selection of clear calls. Calls come from the whole dose curve; tested in HEK293 cells. Where the call is inconclusive, the potency comes from a doubtful curve fit.
# Experiment: qHTS for Inhibitors of binding or entry into cells for Lassa Virus; note: nearly all actives have a fitted effect of over 50% in size
# Conditions: Lassa virus pseudotype entry inhibition, cell reporter; series mostly up to 37.9 µM
# Potency is the fitted concentration of half-maximal effect.
row,Compound,Potency
1,CCOc1ccc(CCNC(=O)C2Cc3ccccc3N2C(=O)CC)cc1OCC (centres undefined),inactive
2,CC(=O)NC/C(C)=N\Nc1ccc([N+](=O)[O-])cc1,inactive
3,O=[N+]([O-])c1ccc2c(c1)C(=Nc1ccccc1)c1ccccc1-2,"inconclusive: 28.2 µM [inhibitor, partial curve, poor fit]"
4,CC1=C(c2ccc(C(C)C)cc2)S(=O)(=O)N=C1N1CCN(C(=O)c2ccco2)CC1,inactive
5,S=c1nc(-c2sccc2OCc2ccc(Cl)cc2Cl)[nH][nH]1,"inconclusive: 35.5 µM [inhibitor, single point]"
6,CCOc1ncccc1C(=O)OCc1cc(=O)oc2c(C)c(C)ccc12,"inconclusive: 8.2 µM [activator, partial curve, poor fit]"
7,COc1ccc(NC(=O)c2cc3c(=O)n(Cc4ccco4)ccc3nc2C)c(OC)c1,inactive
8,O=C(NCc1ccc(F)cc1)c1cc2c(s1)-c1ccccc1SC2,"inconclusive: 25.1 µM [inhibitor, partial curve, poor fit]"
9,O=C(CCCn1c(=O)c2ccccc2n(CC(=O)Nc2ccc(F)cc2F)c1=O)NCc1ccccc1Cl,inactive
10,CC(C)CC(=O)NC(=S)N(Cc1ccccc1)Cc1ccccc1,"inconclusive: 29.1 µM [inhibitor, single point]"
11,O=C(COC(=O)c1cccc(NS(=O)(=O)c2ccc(F)c(F)c2)c1)NC(=O)NC1CCCCC1,"inconclusive: 35.5 µM [inhibitor, partial curve, poor fit]"
12,O=C1Cc2cc(O)ccc2O1,inactive
13,COc1ccc(C(=O)NCC2CCCO2)cc1S(=O)(=O)N1CCCc2ccccc21 (centres undefined),"inconclusive: 8.91 µM [inhibitor, partial curve, poor fit]"
14,Cc1nn(CCC#N)c(N)c1C1(O)C(=O)Nc2c(Cl)cc(Cl)cc21 (centres undefined),"inconclusive: 7.08 µM [inhibitor, partial curve, poor fit]"
15,Fc1ccc(CNc2cc(-c3ccccc3)nc3nncn23)cc1,inactive
16,COc1ccccc1C(=O)NNC(=O)Cc1ccccc1,inactive
17,O=S(=O)(c1cc(-c2nnc(-c3ccc(Br)cc3)o2)ccc1Br)N1CCCCCC1,"inconclusive: 35.5 µM [activator, single point]"
18,COc1cc(/C=C2/SC(=O)N(Cc3ccccc3)C2=O)ccc1OCc1ccncc1,"inconclusive: 25.1 µM [inhibitor, single point]"
19,Nc1nccc(-c2c(-c3ccc(F)cc3)ncn2C2CCC(O)CC2)n1 (centres undefined),"inconclusive: 22.3 µM [inhibitor, partial curve, poor fit]"
20,NC(=O)NCCCC(=O)OCC(=O)c1ccc2ccccc2c1,"inconclusive: 35.5 µM [inhibitor, single point]"
21,Cc1ccc(Nc2ccc(NCc3ccccc3)nn2)cc1C,inactive
22,O=C(Cc1csc(N2CCOCC2)n1)N/N=C/c1ccc(Cl)cc1Cl,"inconclusive: 18.3 µM [inhibitor, single point]"
23,Cc1cc(NC(=O)c2cccc(S(=O)(=O)N3CCCCCC3)c2)no1,inactive

row,Compound,Potency
1,COc1ccc(C(=O)Nc2ccc(C(=O)OCc3cc(=O)n4nc(C(C)C)sc4n3)cc2)cc1,"inconclusive: 31.6 µM [activator, single point]"
2,COc1cc2c(cc1NC(=O)CN1CCN(S(=O)(=O)c3ccccc3F)CC1)oc1ccccc12,inactive
3,COc1ccc(-c2nc(SCC(=O)N3CCC(C)CC3)n[nH]2)cc1,active: 3.16 µM
4,c1coc(C2Nc3ccccc3-c3nc4ccccc4n32)c1 (centres undefined),"inconclusive: 3.66 µM [activator, partial curve, poor fit]"
5,Cn1c(=O)c([N+](=O)[O-])c(-n2ccnc2)c2ccccc21,"inconclusive: 35.5 µM [inhibitor, single point]"
6,Cc1ccc(S(=O)(=O)N2CCC3(CC2)OCCN3S(=O)(=O)c2c(C)cc(C)cc2C)cc1,"inconclusive: 1.12 µM [inhibitor, full curve]"
7,COC(=O)C(C)Oc1ccc(-c2nccc(-c3ccccn3)n2)cc1 (centres undefined),inactive
8,COc1ccc(-c2cn3nc(N4CCC(C(=O)Nc5cc(Cl)ccc5OC)CC4)sc3n2)cc1,"inconclusive: 2.51 µM [activator, full curve]"
9,COc1ccc(CN2C(=O)c3ccccc3C(/C=N\OCc3ccc(C)cc3)C2=O)cc1 (centres undefined),"inconclusive: 10 µM [inhibitor, partial curve]"
10,Clc1ccc(-c2nnc(CSc3nnc(-c4cccs4)n3Cc3ccccc3)o2)cc1,"inconclusive: 16.4 µM [inhibitor, single point]"
11,CCOC(=O)CC(NC(=O)c1ccccc1)c1ccc(OC)cc1 (centres undefined),"inconclusive: 1.26 µM [inhibitor, single point]"
12,CCc1ccc(-c2cc(C)no2)cc1S(=O)(=O)N1CCN(c2ccc(C(C)=O)cc2)CC1,"inconclusive: 12.6 µM [inhibitor, partial curve, poor fit]"
13,CS(=O)(=O)c1cccc(C(=O)OCC(=O)Nc2ccc3c(c2)OCO3)c1,inactive
14,Cc1ccc(S(=O)(=O)N2CCCC2CNC(=O)C(=O)Nc2ccc(F)cc2)cc1 (centres undefined),active: 5.01 µM
15,COc1ccc(CN(C)CC2CCCN(CCc3ccc(Cl)cc3)C2)cc1OC (centres undefined),"inconclusive: 14.1 µM [inhibitor, single point]"
16,CCCC/C(C)=C/[C@@H](NP(=O)(c1ccccc1)c1ccccc1)c1ccccc1,"inconclusive: 29.1 µM [inhibitor, single point]"
17,Cc1c(Cl)cccc1N=C1SCCN1C(=O)CN1C(=O)NC2(CCCC2)C1=O,"inconclusive: 1.58 µM [inhibitor, partial curve, poor fit]"
18,Nc1nc(-c2ccccc2)c(CCCNc2ccccc2)c(=O)[nH]1,inactive
19,CCN(Cc1cccc(F)c1)C(=O)c1ccc2ccccc2n1,inactive
20,COc1ccc(N(CC(=O)N2CCN(c3cccc(OC)c3)CC2)S(=O)(=O)c2c(C)noc2C)cc1,"inconclusive: 22.4 µM [inhibitor, single point]"
21,CCCNS(=O)(=O)c1cc(Br)cc2c1N(C(=O)CC)CC2,inactive
22,Cc1cccc(CN2C(=O)/C(=C\c3ccc(C(=O)NCCN4CCOCC4)cc3)Sc3ccccc32)c1,"inconclusive: 11.2 µM [inhibitor, partial curve, poor fit]"
23,COCCCNC(=O)CSC1=Nc2ccccc2C2=NC(c3ccccc3)C(=O)N12 (centres undefined),inactive

# Some of the entries so far, as tab-separated lines.
row	Compound	Potency
1	COc1ccc(C(=O)Nc2ccc(C(=O)OCc3cc(=O)n4nc(C(C)C)sc4n3)cc2)cc1	inconclusive: 31.6 µM [activator, single point]
2	COc1cc2c(cc1NC(=O)CN1CCN(S(=O)(=O)c3ccccc3F)CC1)oc1ccccc12	inactive
3	COc1ccc(-c2nc(SCC(=O)N3CCC(C)CC3)n[nH]2)cc1	active: 3.16 µM
6	Cc1ccc(S(=O)(=O)N2CCC3(CC2)OCCN3S(=O)(=O)c2c(C)cc(C)cc2C)cc1	inconclusive: 1.12 µM [inhibitor, full curve]
8	COc1ccc(-c2cn3nc(N4CCC(C(=O)Nc5cc(Cl)ccc5OC)CC4)sc3n2)cc1	inconclusive: 2.51 µM [activator, full curve]
9	COc1ccc(CN2C(=O)c3ccccc3C(/C=N\OCc3ccc(C)cc3)C2=O)cc1 (centres undefined)	inconclusive: 10 µM [inhibitor, partial curve]
10	Clc1ccc(-c2nnc(CSc3nnc(-c4cccs4)n3Cc3ccccc3)o2)cc1	inconclusive: 16.4 µM [inhibitor, single point]
12	CCc1ccc(-c2cc(C)no2)cc1S(=O)(=O)N1CCN(c2ccc(C(C)=O)cc2)CC1	inconclusive: 12.6 µM [inhibitor, partial curve, poor fit]
14	Cc1ccc(S(=O)(=O)N2CCCC2CNC(=O)C(=O)Nc2ccc(F)cc2)cc1 (centres undefined)	active: 5.01 µM
16	CCCC/C(C)=C/[C@@H](NP(=O)(c1ccccc1)c1ccccc1)c1ccccc1	inconclusive: 29.1 µM [inhibitor, single point]
19	CCN(Cc1cccc(F)c1)C(=O)c1ccc2ccccc2n1	inactive
21	CCCNS(=O)(=O)c1cc(Br)cc2c1N(C(=O)CC)CC2	inactive
23	COCCCNC(=O)CSC1=Nc2ccccc2C2=NC(c3ccccc3)C(=O)N12 (centres undefined)	inactive

# Remaining list, next part:

row,Compound,Potency
1,Clc1ccc2[nH]c3c(c2c1)CCc1cn[nH]c1-3,inactive
2,CCS(=O)(=O)Nc1ccc(C2=NN(C(=O)c3ccco3)C(c3ccc(C)cc3)C2)cc1 (centres undefined),active: 16.4 µM
3,Cc1ccc(/C=N/NC(=S)NC2CCCCC2)o1,"inconclusive: 6.31 µM [activator, single point]"
4,CC(Cc1ccco1)NC(=O)c1cccc(S(=O)(=O)N(C)C)c1 (centres undefined),"inconclusive: 0.82 µM [inhibitor, full curve, poor fit]"
5,CCOC(=O)C1=C(CS(=O)(=O)c2ccc(C)c(C)c2)NC(=O)NC1c1ccccc1OCC (centres undefined),inactive
6,CC(C)C(=O)Nc1nnc(SCC(=O)N2C(C)CCCC2C)s1 (centres undefined),"inconclusive: 11.2 µM [inhibitor, partial curve, poor fit]"
7,Cc1ccccc1NC(=O)NCc1ccccn1,"inconclusive: 7.08 µM [activator, full curve, poor fit]"
8,CCCC(=O)c1ccc(OCc2cn(CC(=O)c3ccc(O)cc3)nn2)cc1,"inconclusive: 11.2 µM [inhibitor, single point]"
9,CCCN(CCC)C1Sc2ccc(C(=O)OC)cc2NC1=O (centres undefined),inactive
10,Cc1[nH]n(-c2nc(-c3cccc([N+](=O)[O-])c3)cs2)c(=O)c1C,inactive
11,c1csc(-c2nnsc2-c2nc3ccccc3[nH]2)c1,inactive
12,O=C(COC(=O)c1n[nH]c(=O)c2ccccc12)Nc1ccccc1F,"inconclusive: 2.82 µM [activator, partial curve, poor fit]"
13,COc1ccc(NC(=O)C(CC(C)C)NS(=O)(=O)c2ccc3c(c2)oc(=O)n3C)cc1Cl (centres undefined),"inconclusive: 31.6 µM [activator, single point]"
14,Cc1nnn(-c2nonc2N)c1C(=O)N/N=C/c1cccc2ccccc12,inactive
15,Cc1ccc(S(=O)(=O)c2nc(-c3ccccc3)oc2SCC(=O)NC2CCCCC2)cc1,inactive
16,CCOC(=O)Cc1[nH]nc2c1C(c1ccsc1)C(C#N)=C(N)O2 (centres undefined),inactive
17,CC(C)Cc1ccc(C(C)CC2=CCC(CN(C)C)C2=O)cc1 (centres undefined),"inconclusive: 35.5 µM [inhibitor, single point]"
18,N[C@@H](CCC(=O)N[C@H](CSN=O)C(=O)NCC(=O)O)C(=O)O,"inconclusive: 0.326 µM [inhibitor, full curve, poor fit]"
19,COc1ccc(OC)c(N/C=C/C(=O)c2ccc(OC)c(OC)c2)c1,"inconclusive: 12.6 µM [inhibitor, partial curve]"
20,CCOC(=O)c1[nH]c(C)c(C(=O)N2CCc3ccccc32)c1C,"inconclusive: 2.82 µM [inhibitor, full curve, poor fit]"
21,O=C(O)CCN1C(=O)/C(=C/c2ccc(-c3nc4ccccc4s3)o2)SC1=S,inactive
22,O=C(O)c1ccc(N/N=C/C2=C(N3CCOCC3)C(=C\c3ccccc3)/CC2)cc1,"inconclusive: 35.5 µM [inhibitor, single point]"
23,Cc1ccccc1CS(=O)(=O)c1nnc([C@H](Cc2ccccc2)NC(=O)OC(C)(C)C)o1,"inconclusive: 2.59 µM [inhibitor, full curve]"
